This is one part of the list. Most values lie at the level of the controls, where differences are scatter.

Chains of the proteins cited; added tags and fusions are not shown. Lines headed by an entry give the natural chain unless they say otherwise; changes in a name come on top.
UniProt Q0VBL3: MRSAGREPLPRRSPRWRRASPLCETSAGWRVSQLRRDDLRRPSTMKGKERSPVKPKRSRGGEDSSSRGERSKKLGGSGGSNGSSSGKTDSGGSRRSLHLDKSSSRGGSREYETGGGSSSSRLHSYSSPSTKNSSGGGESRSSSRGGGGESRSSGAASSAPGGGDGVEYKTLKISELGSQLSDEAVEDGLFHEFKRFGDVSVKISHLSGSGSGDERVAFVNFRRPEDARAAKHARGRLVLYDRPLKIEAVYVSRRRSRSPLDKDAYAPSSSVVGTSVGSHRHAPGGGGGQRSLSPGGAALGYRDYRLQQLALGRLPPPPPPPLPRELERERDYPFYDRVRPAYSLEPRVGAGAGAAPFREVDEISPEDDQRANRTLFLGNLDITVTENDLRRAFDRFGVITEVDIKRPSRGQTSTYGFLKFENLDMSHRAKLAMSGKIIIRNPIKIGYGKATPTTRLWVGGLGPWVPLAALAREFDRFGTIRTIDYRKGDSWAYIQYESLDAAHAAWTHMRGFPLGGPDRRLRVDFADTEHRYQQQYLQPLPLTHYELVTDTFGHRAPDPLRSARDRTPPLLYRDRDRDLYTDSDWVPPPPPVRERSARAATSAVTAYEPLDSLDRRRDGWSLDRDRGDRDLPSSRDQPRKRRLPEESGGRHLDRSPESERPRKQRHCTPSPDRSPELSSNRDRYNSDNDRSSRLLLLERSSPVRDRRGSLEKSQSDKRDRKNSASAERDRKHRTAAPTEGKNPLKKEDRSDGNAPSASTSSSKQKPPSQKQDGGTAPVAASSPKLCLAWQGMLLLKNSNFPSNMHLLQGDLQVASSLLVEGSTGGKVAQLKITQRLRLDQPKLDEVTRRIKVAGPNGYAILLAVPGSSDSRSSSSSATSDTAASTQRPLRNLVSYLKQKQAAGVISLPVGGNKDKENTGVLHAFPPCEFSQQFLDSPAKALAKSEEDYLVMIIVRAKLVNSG
UniProt Q0P5Y3: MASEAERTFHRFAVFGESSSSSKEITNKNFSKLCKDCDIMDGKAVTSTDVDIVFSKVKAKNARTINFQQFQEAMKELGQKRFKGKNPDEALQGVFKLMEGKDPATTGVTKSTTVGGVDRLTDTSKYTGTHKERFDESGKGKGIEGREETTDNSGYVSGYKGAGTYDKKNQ
UniProt Q33DR3: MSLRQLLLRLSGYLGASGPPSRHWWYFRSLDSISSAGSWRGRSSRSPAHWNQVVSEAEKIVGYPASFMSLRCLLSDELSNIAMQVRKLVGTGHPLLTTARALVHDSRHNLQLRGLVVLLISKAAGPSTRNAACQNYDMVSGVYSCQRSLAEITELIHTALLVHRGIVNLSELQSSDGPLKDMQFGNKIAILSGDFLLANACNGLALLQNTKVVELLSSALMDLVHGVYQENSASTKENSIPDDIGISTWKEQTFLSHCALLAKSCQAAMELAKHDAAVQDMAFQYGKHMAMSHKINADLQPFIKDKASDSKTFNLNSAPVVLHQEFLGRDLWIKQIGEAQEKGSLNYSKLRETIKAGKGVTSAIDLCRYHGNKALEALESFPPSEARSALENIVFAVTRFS
UniProt Q3U2C5: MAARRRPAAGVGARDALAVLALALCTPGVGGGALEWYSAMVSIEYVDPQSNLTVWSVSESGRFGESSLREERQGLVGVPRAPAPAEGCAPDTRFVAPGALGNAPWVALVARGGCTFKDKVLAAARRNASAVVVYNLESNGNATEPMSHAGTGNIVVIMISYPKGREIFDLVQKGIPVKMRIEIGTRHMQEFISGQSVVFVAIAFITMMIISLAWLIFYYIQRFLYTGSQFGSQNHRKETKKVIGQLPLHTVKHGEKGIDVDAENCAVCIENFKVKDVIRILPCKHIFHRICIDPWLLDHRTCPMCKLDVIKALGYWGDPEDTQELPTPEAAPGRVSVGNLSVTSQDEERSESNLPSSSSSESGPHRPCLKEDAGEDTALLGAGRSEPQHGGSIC
UniProt Q3TNH5: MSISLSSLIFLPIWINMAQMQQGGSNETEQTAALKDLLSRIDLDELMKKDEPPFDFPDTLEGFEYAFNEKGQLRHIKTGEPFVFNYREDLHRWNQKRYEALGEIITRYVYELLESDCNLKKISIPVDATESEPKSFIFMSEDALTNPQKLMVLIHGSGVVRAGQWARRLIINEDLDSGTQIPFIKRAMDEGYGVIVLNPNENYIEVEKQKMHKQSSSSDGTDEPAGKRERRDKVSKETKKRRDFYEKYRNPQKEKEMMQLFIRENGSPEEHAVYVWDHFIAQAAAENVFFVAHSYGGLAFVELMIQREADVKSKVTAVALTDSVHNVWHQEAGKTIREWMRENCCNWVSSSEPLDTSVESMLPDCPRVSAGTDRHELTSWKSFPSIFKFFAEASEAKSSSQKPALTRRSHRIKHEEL
UniProt Q3TPE9: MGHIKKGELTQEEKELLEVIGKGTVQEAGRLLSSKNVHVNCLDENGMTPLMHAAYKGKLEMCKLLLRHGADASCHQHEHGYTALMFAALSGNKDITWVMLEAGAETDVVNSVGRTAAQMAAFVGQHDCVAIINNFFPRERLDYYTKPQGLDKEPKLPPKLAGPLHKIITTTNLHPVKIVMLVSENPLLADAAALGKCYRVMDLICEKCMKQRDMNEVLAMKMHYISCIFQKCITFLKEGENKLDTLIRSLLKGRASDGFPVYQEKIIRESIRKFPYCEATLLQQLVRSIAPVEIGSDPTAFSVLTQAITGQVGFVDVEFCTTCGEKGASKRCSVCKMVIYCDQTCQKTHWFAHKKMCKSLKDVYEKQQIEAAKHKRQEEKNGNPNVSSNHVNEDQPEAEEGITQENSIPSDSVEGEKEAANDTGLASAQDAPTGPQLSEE
UniProt Q06649: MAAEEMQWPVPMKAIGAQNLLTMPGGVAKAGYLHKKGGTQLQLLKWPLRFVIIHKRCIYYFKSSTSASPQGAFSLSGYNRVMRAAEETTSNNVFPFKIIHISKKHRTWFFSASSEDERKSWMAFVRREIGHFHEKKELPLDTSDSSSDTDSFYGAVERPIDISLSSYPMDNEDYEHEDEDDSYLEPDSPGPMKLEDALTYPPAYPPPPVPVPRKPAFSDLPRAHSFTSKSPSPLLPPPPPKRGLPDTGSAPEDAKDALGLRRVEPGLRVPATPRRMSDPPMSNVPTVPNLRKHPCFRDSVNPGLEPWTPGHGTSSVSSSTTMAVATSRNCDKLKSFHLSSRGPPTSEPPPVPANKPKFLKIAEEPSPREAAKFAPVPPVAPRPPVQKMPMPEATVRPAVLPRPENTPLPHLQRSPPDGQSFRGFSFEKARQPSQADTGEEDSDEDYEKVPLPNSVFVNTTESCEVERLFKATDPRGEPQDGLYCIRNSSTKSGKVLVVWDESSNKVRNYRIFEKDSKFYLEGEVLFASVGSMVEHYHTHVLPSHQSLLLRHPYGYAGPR
UniProt Q059U7: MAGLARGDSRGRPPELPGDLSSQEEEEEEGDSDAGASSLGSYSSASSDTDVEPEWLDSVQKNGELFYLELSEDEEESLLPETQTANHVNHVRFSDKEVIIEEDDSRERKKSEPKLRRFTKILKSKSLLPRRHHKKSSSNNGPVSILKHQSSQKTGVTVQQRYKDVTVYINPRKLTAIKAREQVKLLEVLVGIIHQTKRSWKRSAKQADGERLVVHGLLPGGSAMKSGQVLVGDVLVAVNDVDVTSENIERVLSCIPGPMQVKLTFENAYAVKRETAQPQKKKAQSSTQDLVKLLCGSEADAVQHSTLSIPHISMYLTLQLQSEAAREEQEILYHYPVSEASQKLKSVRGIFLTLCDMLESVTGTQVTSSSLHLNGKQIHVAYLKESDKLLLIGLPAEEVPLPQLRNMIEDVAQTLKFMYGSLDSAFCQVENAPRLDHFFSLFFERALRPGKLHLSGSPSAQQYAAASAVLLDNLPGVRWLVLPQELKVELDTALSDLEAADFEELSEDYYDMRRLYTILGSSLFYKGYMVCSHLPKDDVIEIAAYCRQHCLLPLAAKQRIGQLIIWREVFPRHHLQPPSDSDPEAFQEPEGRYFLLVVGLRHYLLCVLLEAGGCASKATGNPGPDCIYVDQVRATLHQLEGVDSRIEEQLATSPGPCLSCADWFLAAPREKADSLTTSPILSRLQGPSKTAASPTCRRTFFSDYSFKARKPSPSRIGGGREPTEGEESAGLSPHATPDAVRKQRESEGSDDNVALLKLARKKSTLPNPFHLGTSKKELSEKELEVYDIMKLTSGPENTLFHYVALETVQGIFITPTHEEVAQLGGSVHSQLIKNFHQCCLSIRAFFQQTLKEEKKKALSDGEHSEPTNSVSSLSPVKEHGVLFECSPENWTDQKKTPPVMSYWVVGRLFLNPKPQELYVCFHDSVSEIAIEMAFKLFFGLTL
UniProt Q2HXL6: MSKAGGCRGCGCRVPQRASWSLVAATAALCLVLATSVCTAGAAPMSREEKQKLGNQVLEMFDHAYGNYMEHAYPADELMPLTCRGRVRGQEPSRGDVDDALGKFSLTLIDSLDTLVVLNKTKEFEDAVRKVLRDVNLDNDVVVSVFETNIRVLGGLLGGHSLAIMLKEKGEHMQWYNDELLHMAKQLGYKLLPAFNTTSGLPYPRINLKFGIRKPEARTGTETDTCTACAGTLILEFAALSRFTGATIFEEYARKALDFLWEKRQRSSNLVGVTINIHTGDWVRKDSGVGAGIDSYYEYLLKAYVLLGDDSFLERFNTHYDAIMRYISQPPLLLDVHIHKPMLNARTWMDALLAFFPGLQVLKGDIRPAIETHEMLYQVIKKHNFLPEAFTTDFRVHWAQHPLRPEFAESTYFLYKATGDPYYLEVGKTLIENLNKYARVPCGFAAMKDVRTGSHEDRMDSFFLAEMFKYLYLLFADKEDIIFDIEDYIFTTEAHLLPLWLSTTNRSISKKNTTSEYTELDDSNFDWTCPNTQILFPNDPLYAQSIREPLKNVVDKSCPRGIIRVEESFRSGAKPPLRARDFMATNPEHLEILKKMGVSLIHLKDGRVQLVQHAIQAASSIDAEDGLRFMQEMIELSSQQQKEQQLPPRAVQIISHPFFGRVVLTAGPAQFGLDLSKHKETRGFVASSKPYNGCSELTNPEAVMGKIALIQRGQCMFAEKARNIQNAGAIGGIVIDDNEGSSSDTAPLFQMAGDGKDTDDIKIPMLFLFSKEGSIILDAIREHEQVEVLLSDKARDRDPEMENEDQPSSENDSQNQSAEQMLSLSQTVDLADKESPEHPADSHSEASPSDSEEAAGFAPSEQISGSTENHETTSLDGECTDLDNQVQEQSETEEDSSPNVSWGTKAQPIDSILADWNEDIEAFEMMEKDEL
UniProt Q148W0: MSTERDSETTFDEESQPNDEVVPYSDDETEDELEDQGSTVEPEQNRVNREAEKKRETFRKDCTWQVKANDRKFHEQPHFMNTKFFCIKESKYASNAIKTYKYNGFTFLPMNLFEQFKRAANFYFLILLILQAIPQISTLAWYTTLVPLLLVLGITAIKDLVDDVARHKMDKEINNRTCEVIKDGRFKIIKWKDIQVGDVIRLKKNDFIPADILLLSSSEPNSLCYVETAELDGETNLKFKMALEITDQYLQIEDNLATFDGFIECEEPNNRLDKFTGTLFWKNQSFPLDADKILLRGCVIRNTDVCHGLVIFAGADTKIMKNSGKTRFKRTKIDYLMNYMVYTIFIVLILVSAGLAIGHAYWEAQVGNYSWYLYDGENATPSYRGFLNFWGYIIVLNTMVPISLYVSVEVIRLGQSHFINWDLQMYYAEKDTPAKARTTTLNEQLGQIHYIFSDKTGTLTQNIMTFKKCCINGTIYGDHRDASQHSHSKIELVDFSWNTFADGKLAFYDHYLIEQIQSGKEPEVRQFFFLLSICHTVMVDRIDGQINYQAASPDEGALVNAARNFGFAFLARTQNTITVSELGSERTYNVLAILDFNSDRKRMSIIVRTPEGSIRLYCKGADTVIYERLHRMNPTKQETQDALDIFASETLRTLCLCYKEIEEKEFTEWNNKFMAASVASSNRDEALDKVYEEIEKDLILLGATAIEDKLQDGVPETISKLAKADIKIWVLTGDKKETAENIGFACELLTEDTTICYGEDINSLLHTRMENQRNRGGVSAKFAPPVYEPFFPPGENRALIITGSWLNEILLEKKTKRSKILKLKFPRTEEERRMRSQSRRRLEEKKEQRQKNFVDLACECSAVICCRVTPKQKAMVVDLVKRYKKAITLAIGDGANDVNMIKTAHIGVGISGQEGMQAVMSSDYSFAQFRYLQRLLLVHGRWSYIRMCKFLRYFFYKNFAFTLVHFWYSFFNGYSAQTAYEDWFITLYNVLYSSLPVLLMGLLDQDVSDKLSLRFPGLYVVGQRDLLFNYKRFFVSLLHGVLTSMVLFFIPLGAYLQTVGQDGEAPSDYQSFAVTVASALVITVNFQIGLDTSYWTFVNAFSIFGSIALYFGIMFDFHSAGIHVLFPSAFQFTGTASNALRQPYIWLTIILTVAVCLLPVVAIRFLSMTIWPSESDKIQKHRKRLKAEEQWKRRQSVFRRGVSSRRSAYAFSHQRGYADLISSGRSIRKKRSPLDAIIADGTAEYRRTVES

Compound in this assay: CN[C@@H]1C[C@H]2O[C@@](C)([C@@H]1OC)n1c3ccccc3c3c4c(c5c6ccccc6n2c5c31)C(=O)NC4 [staurosporine]
Put plainly: log2 fold change of tryptic peptide abundance, ligand vs vehicle (limited proteolysis) (log2 ratio); higher = more trypsin-susceptible (destabilized). The settings on record: ligand concentration: 20 uM; sample: mouse liver crude lysate; replicate design: treated separately.
Turning to “UniProt Q0VBL3 (peptide sequence: DRYNSDNDR, peptide start residue: 682)”, the log2 fold change was -0.474.

For the target “UniProt Q3TX08 (peptide sequence: RKEPAEDPAQR, peptide start residue: 586)”, the log2 fold change is -0.183.

In the case of “UniProt Q08024 (peptide sequence: GWIDLHR, peptide start residue: 112)”, the log2 fold change was 0.262.

As for “UniProt Q0P5Y3 (peptide sequence: FDESGKGK, peptide start residue: 139)”, the log2 fold change is -0.221.

In the case of “UniProt Q3TYD6 (peptide sequence: YFSPPPPAR, peptide start residue: 1416)”, the log2 fold change was 0.545.

Regarding “UniProt Q33DR3 (peptide sequence: INADLQPFIK, peptide start residue: 295)”, the log2 fold change was -0.271.

As to “UniProt Q0VBD2 (peptide sequence: FFKCPCGNR, peptide start residue: 823)”, the log2 fold change is -0.396.

Consider “UniProt Q2VPQ9 (peptide sequence: TAPPQIPDTR, peptide start residue: 7)”, for which the log2 fold change came to 0.44.

In the case of “UniProt Q3TZ89 (peptide sequence: AHSPCAQASK, peptide start residue: 507)”, the log2 fold change was -0.699.

On to “UniProt Q3U2C5 (peptide sequence: KVIGQLPLHTVK, peptide start residue: 241)”, for which the log2 fold change is -0.0639.

In the case of “UniProt Q08274 (peptide sequence: ELYFYPGCCRSGSQR, peptide start residue: 130)”, the log2 fold change is -0.147.

For “UniProt Q2PFD7 (peptide sequence: EHLEENFAIQGDKER, peptide start residue: 385)”, the log2 fold change is -0.285.

Regarding “UniProt Q3TC33 (peptide sequence: YHAVISEHR, peptide start residue: 74)”, the log2 fold change came out at 0.355.

Regarding “UniProt Q3TNH5 (peptide sequence: QSSSSDGTDEPAGKR, peptide start residue: 214)”, the log2 fold change was -0.378.

On to “UniProt Q11011 (peptide sequence: LGWDPKPGEGHLDALLR, peptide start residue: 691)”, for which the log2 fold change was -0.254.

Take “UniProt Q3U155 (peptide sequence: AEKDAEQKLEEQK, peptide start residue: 65)”: the log2 fold change is 0.321.

On to “UniProt Q3TPE9 (peptide sequence: ELLEVIGK, peptide start residue: 15)”, for which the log2 fold change was -0.272.

Consider “UniProt Q06649 (peptide sequence: SPSPLLPPPPPKR, peptide start residue: 230)”, for which the log2 fold change amounted to 0.128.

For the target “UniProt Q04891 (peptide sequence: ILQAFPDMHNSSISK, peptide start residue: 434)”, the log2 fold change turned out to be 0.746.

As to “UniProt Q3TWL2 (peptide sequence: MHQHVVK, peptide start residue: 104)”, the log2 fold change is -0.506.

For “UniProt Q3TBD2 (peptide sequence: CLETLAIQCGHKK, peptide start residue: 736)”, the log2 fold change was 0.474.

Turning to “UniProt Q059U7 (peptide sequence: LVVHGLLPGGSAMK, peptide start residue: 212)”, the log2 fold change was found to be 0.559.

Consider “UniProt Q09200 (peptide sequence: YRYPGSLDQSQVAK, peptide start residue: 504)”, for which the log2 fold change worked out at 0.175.

For the target “UniProt Q2HXL6 (peptide sequence: MGVSLIHLK, peptide start residue: 596)”, the log2 fold change came to 0.273.

Consider “UniProt Q3THK3 (peptide sequence: KTGLSSEQTVNVLAQILK, peptide start residue: 472)”, for which the log2 fold change was 0.351.

On to “UniProt Q05144 (peptide sequence: DIDSVKYLECSALTQR, peptide start residue: 148)”, for which the log2 fold change was -0.286.

With “UniProt Q148V8 (peptide sequence: TGPTEEVSSGPMEVLRK, peptide start residue: 980)”, the log2 fold change is -0.467.

As for “UniProt Q05117 (peptide sequence: WNFPSPYYR, peptide start residue: 132)”, the log2 fold change was -0.136.

Regarding “UniProt Q3TDQ1 (peptide sequence: IAEGEHPK, peptide start residue: 678)”, the log2 fold change is -0.156.

For the target “UniProt Q3U1C6 (peptide sequence: ELQSHPLQAK, peptide start residue: 272)”, the log2 fold change is -0.519.

“UniProt Q148W0 (peptide sequence: GYADLISSGR, peptide start residue: 1216)”: the log2 fold change is -0.283.

Values taken from the supplement of paper PMC12819154, “High-throughput peptide-centric local stability assay extends protein–ligand identification to membrane proteins, tissues and bacteria” (Nature Structural & Molecular Biology, 2025).
